Data as given in paper PMC3900708.
These are yes or no findings as the source states them, for the method shown. For some assays here: A result given as binding can be weak or reduced; the word gives no strength. For some assays here: Binding seen in cells or lysates may run through a third protein. Blank lines part the entries; values can stand above or below the substance they belong to.

The chains behind the UniProt entries cited, without tags or fusion partners. Where a name states a change or a piece, a line headed by the entry shows the natural chain unless it says otherwise.
UniProt P12003: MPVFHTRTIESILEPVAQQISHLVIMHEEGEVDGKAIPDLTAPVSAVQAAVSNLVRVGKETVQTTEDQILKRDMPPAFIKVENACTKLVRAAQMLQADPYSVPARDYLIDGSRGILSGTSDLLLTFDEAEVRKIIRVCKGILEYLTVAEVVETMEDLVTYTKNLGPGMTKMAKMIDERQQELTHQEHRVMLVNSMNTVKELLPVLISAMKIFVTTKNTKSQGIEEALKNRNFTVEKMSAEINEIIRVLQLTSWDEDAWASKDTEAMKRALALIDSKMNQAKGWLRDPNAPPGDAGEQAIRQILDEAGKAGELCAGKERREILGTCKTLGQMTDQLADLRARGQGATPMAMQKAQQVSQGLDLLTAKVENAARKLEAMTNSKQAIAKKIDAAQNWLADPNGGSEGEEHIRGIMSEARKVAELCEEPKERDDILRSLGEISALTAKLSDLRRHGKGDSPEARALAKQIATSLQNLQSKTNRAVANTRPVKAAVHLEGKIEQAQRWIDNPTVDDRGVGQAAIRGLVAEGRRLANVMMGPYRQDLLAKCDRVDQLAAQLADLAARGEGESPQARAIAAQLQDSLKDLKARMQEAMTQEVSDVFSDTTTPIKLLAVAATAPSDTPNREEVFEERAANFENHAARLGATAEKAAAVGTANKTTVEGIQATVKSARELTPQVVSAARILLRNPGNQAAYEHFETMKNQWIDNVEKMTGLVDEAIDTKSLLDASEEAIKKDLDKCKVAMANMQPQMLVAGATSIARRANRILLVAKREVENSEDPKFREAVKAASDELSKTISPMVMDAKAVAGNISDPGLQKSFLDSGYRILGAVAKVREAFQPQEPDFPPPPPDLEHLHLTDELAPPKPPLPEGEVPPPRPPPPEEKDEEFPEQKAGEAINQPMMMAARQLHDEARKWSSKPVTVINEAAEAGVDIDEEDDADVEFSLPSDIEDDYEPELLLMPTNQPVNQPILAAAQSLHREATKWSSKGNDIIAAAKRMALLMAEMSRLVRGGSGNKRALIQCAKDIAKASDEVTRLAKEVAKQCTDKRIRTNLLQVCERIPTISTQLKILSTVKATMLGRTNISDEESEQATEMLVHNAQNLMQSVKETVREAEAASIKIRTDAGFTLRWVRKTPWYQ
UniProt P20339: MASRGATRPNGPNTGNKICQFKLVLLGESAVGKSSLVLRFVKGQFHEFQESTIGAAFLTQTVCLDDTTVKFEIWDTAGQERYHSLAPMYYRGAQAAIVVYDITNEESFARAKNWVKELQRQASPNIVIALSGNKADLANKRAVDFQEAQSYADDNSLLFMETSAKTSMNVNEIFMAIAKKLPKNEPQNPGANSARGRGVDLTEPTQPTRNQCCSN

Experiments:
[1] = molecular target: His-vin1-1066 (full length) (UniProt P12003); experiment: pull-down; GST-Rab5 (Q79L) incubated with purified His-vinculin deletion mutants, His-pull-down; beads assayed by western blot; both purified
[2] = molecular target: His-vin881-1066 (UniProt P12003); experiment: as above
[3] = molecular target: GFP-vinculinA50I (UniProt P12003); experiment: co-IP; GFP-vinculin (WT or mutant) coexpressed with HA-Rab5 (WT) in Cos-7, precipitated with anti-GFP; western blot with anti-GFP and anti-HA
[4] = molecular target: GST-Rab5 (S34N) (UniProt P20339); experiment: pull-down; 5 µg GST-Rab5 (Q79L or S34N) on glutathione beads, incubated with purified His-vinculin 60 min at 4°C; wash buffer 20 mM HEPES, 100 mM NaCl, 5 mM MgCl2, 1 mM DTT, pH 7.6; western blot; both purified
[5] = molecular target: GST-Rab5 (Q79L) (UniProt P20339); experiment: as above

binding [1]: binds | binding [2]: no binding
Substance: GST-Rab5 (Q79L) (from UniProt P20339 1-215)

binding [3]: no binding
Substance: HA-Rab5 (WT) (from UniProt P20339 1-215)

binding [4]: binds | binding [5]: binds
Substance: His-vin1-1066 (full length) (from UniProt P12003-2)
